From PubChem BioAssay AID540276 (National Center for Advancing Translational Sciences (NCATS), 2011)
The campaign covered roughly 300,000 compounds. About 5,400 (1.8%) were called active. The shares of active, inactive and inconclusive entries below differ from those in the screen. The call rests on the fitted dose curve; tested in HEK293 cells. Potencies of inconclusive entries are doubtful fits and often do not repeat.
On the % scale 0 is the no-effect control and ±100 the full control effect; potency means the concentration at half of the fitted maximal effect.

Test: qHTS for inhibitors of binding or entry into cells for Marburg Virus
Conditions: Marburg virus pseudotyped entry inhibition, cell reporter; activity change, negative = inhibition: at 37.8 µM (top of the series) unless noted
In the case of `C=CCS/C(=N\n1cnc2ccccc2c1=O)N1CCCCC1`, the Potency is reported as inconclusive: 3.16 µM [inhibitor, single point].
For `N#CC(C#N)=NNc1ccc(S(=O)(=O)N2CCCCC2)cc1`, the Potency was inconclusive: 1.58 µM [activator, partial curve].
With `S=c1[nH]nc(CSc2nc3ccccc3s2)n1Cc1ccccc1` the Potency was inconclusive: 4.11 µM [activator, full curve, poor fit].
In the case of `CCOC(=O)c1cc(-c2ccccc2)sc1NC(=O)CC`, the Potency is reported as inconclusive: 35.5 µM [inhibitor, single point].
With `O=C(N/N=C/c1cc([N+](=O)[O-])ccc1O)c1ccc2c(c1)OCCO2` the Potency was inconclusive: 35.5 µM [inhibitor, single point].
For `CON/C=N/C(=S)Nc1ncc(C(F)(F)F)cc1Cl`, the Potency was inconclusive: 35.5 µM [inhibitor, single point].
With `Cc1sc2ncnc(N3CCN(C(=O)c4ccco4)CC3)c2c1C` the Potency was inconclusive: 11.2 µM [inhibitor, partial curve, poor fit].
For `O=C(O)CCn1c(=S)oc2ccccc21`, the “activity change, negative = inhibition” value was inactive: 14.5%.
For `Cc1ccsc1/C=N/NC(=O)CN1CCN(Cc2ccccc2)CC1`, the “activity change, negative = inhibition” value was inactive: -0.0986% [at 46.1 µM].
In the case of `COc1ccc(N(C(=O)Cn2nnc(-c3ccc(F)cc3)n2)C(C)C(=O)NC2CCCC2)cc1` (stereo unspecified), the Potency is reported as inconclusive: 11.2 µM [inhibitor, single point].
With `Cc1nnc(NC(=O)c2ccc(Br)cc2)s1` the Potency was inconclusive: 20.6 µM [activator, single point].
With `COc1ccccc1NC(=O)C(Sc1ccccc1)c1ccccc1` (stereo unspecified) the “activity change, negative = inhibition” value was inactive: -16.3%.
With `COc1ccc(-c2cc(-c3ccc(O)cc3)nc(N)c2C#N)cc1OC` the Potency was active: 4.47 µM.
With `Cc1nn(Cc2ccc(Cl)c(Cl)c2)c(C)c1NC(=O)c1cc(-c2ccc3c(c2)OCO3)on1` the Potency was active: 6.51 µM.
In the case of `CCOc1ccc(C(=O)N2CCc3cc(OC)c(OC)cc3C2COc2ccc3c(C)cc(=O)oc3c2)cc1OCC` (stereo unspecified), the Potency is reported as inconclusive: 2.51 µM [inhibitor, full curve, poor fit].
For `CC1(C(=O)NC2CCCCCCC2)CCC(=O)N1CCN1CCOCC1` (stereo unspecified), the “activity change, negative = inhibition” value was inactive: 19.2%.
In the case of `COc1cccc(CC(=O)OCC(=O)Nc2c(C)nn(-c3ccccc3)c2C)c1`, the “activity change, negative = inhibition” value is reported as inactive: -9.63% [at 46.1 µM].
In the case of `O=C(N[C@@H](Cc1c[nH]c2ccccc12)C(=O)NC1CC1)c1ccccc1Cl`, the “activity change, negative = inhibition” value is reported as inactive: 8.5%.
With `O=C(COC(=O)c1ccccc1C(=O)N1CCN(c2ccc(F)cc2)CC1)NCc1ccccc1` the Potency was inconclusive: 12.6 µM [inhibitor, single point].
For `CCOC(=O)C(=CN=C(N)Nc1nc2ccccc2o1)C(=O)OCC`, the Potency was inconclusive: 3.55 µM [activator, partial curve, poor fit].
In the case of `Cc1cc(OC(=O)c2ccc3ccccc3c2)c([N+](=O)[O-])c(=O)[nH]1`, the Potency is reported as inconclusive: 35.5 µM [inhibitor, single point].
In the case of `NC(=O)c1c(NC(=O)CCCn2cnc([N+](=O)[O-])n2)sc2c1CCCC2`, the “activity change, negative = inhibition” value is reported as inactive: 3.31% [at 46.1 µM].
In the case of `CCn1c(CNc2ccc(C)cc2)nnc1SCC(N)=O`, the Potency is reported as inconclusive: 10 µM [activator, single point].
With `COc1cc([N+](=O)[O-])ccc1NC(=O)NNC(=O)c1sccc1C` the Potency was inconclusive: 5.62 µM [activator, single point].
With `Cc1cc(C)n(-c2ccn(Cc3ccc(Cl)cc3Cl)c(=O)n2)n1` the Potency was inconclusive: 16.4 µM [inhibitor, partial curve, poor fit].
For `COCCCn1c(SCC(=O)Nc2nnc(C)s2)nnc1-c1ccoc1C`, the “activity change, negative = inhibition” value was inactive: -10.8% [at 46.1 µM].
For `CC(=O)n1c2c(c3ccccc31)OC(N)=C(C#N)C2c1ccc(C(C)C)cc1` (stereo unspecified), the “activity change, negative = inhibition” value was inactive: 3.04%.
With `CC1CC(C)CN(CCOc2cccc(Cl)c2Cl)C1` (stereo unspecified) the Potency was inconclusive: 2.91 µM [inhibitor, partial curve].
For `COc1ccc(C(=O)Nc2ccccc2C(=O)N2CCN(c3ccccc3)CC2)cc1`, the “activity change, negative = inhibition” value was inactive: 3.79%.
In the case of `OCCNc1nc(Nc2cccc(O)c2)nc2ccccc12`, the Potency is reported as inconclusive: 35.5 µM [inhibitor, single point].
With `N#CCCN(C(=O)COC(=O)c1ccc(S(=O)(=O)N2CCOCC2)cc1)c1ccccc1` the Potency was inconclusive: 5.01 µM [activator, single point].
For `O=C(CSc1ccc(-c2ccncc2)nn1)N1CCCCC1`, the “activity change, negative = inhibition” value was inactive: -14% [at 46.1 µM].
In the case of `O=C(CSc1nc(-c2cccs2)cc(C(F)(F)F)n1)Nc1cc(OCC(F)(F)C(F)F)cc([N+](=O)[O-])c1`, the Potency is reported as inconclusive: 5.01 µM [inhibitor, partial curve, poor fit].
In the case of `CCCCn1c(S(=O)(=O)O)nc2ccccc21`, the Potency is reported as inconclusive: 23.1 µM [activator, single point].
With `CCOC(=O)c1c(NC(=O)CN2CCCc3ccccc32)sc(C)c1CC` the Potency was inconclusive: 4.47 µM [inhibitor, full curve, poor fit].
In the case of `CC(C)CC(=O)c1c[nH]c(C(=O)NCCc2ccccn2)c1`, the “activity change, negative = inhibition” value is reported as inactive: 0.905%.
With `CCOc1cc(-n2ncc(C#N)c2N)nc(SC)n1` the Potency was inconclusive: 14.6 µM [inhibitor, partial curve, poor fit].
With `Cc1cccc(NC(=O)CSCC(=O)N(C)CC(=O)Nc2cccc(F)c2)c1` the “activity change, negative = inhibition” value was inactive: 28.1%.
For `Cc1ccc(C2=NC(C)(C)N=C2SCC(=O)Nc2ccc(Cl)cc2)cc1`, the Potency was inconclusive: 35.5 µM [inhibitor, single point].
For `CCN(CC)c1ccc(/C=N/N2C(C)CCCC2C)c(O)c1` (stereo unspecified), the Potency was inconclusive: 25.1 µM [inhibitor, partial curve, poor fit].
For `CC(C)c1ccccc1NC(=O)C(Cc1c[nH]c2ccccc12)NC(=O)OC(C)(C)C` (stereo unspecified), the Potency was inconclusive: 11.2 µM [inhibitor, partial curve, poor fit].
With `Cc1c(CN(C)C)c2c(n1C)C(=O)c1ccc(Br)cc1-2` the Potency was inconclusive: 18.3 µM [inhibitor, partial curve].
With `Cc1ccc(S(=O)(=O)c2nc(-c3cccs3)oc2SCc2ccc(F)cc2)cc1` the Potency was inconclusive: 12.6 µM [inhibitor, partial curve, poor fit].
With `C/C(=N\NC(=O)c1nn(C)c(C)c1Br)c1cccc(NC(=O)c2ccoc2C)c1` the “activity change, negative = inhibition” value was inactive: -39.3%.
With `c1ccc(CN2CCC(Nc3nc(-c4cccs4)nc4ccccc34)CC2)cc1` the Potency was active: 11.6 µM.
With `CN(C)CCOC(=O)/C(=C/c1cn(C)c2ccccc12)NC(=O)c1ccccc1` the Potency was inconclusive: 6.31 µM [activator, single point].
With `Nc1nc(Nc2ccccc2)sc1C(=O)c1ccccc1` the “activity change, negative = inhibition” value was inactive: -16.2% [at 46.1 µM].
For `CCCCNC(=O)CCc1c(C)nc2nc(-c3cc(OC)cc(OC)c3)nn2c1C`, the Potency was “inactive”.
In the case of `CC(C)(C)NC(=O)NC(=O)CN1CCN(c2ncc(C(F)(F)F)cc2Cl)CC1`, the Potency is reported as inconclusive: 8.91 µM [inhibitor, partial curve, poor fit].
For `CN1CCN(Cc2cn[nH]c2-c2ccc(F)cc2F)[C@@H](c2ccccc2)C1`, the Potency was inconclusive: 8.91 µM [inhibitor, partial curve, poor fit].
With `COc1ccc(C(=O)NC2CC3CCCC(C2)N3Cc2ccccc2)cc1` (stereo unspecified) the Potency was inconclusive: 11.2 µM [inhibitor, partial curve].
For `O=C(N/N=C/c1ccccn1)c1ccc(NC(=O)c2cccc([N+](=O)[O-])c2)cc1`, the Potency was inconclusive: 35.5 µM [inhibitor, single point].
In the case of `COC(=O)Cc1[nH]n(-c2nc3ccccc3s2)c(=O)c1C(C)=Nc1ccc(C)cc1`, the Potency is reported as inconclusive: 2.51 µM [inhibitor, full curve].
With `COc1ccc(-n2c3c(cc(C(=O)NNc4ccccc4)c2=O)C(=O)CC(C)(C)C3)cc1` the Potency was inconclusive: 35.5 µM [inhibitor, single point].
For `Cc1ccccc1Oc1nc2c(C)cccn2c(=O)c1/C=C(\C#N)C(=O)Nc1c(C)n(C)n(-c2ccccc2)c1=O`, the Potency was inconclusive: 12.6 µM [inhibitor, single point].
In the case of `CC1CCN(S(=O)(=O)c2ccc([N+](=O)[O-])cc2)CC1`, the Potency is reported as inconclusive: 0.562 µM [inhibitor, full curve, poor fit].
In the case of `Cc1ccc(N2C(=O)[C@@H]3[C@H](C2=O)C2c4ccccc4C=CN2[C@@H]3C(=O)c2ccco2)c(C)c1` (stereo partly specified), the Potency is reported as inconclusive: 2 µM [inhibitor, partial curve, poor fit].
In the case of `O=C(C(c1ccccc1)c1ccccc1)N1CCCc2ccccc21`, the Potency is reported as active: 14.1 µM.
With `Cn1nnnc1SC1CC(=O)N(c2ccccc2)C1=O` (stereo unspecified) the Potency was inconclusive: 10 µM [inhibitor, partial curve].
In the case of `Clc1ccccc1N=Nc1ccccn1`, the Potency is reported as inconclusive: 6.31 µM [activator, full curve, poor fit].
With `CC(=O)c1ccc(Nc2cnn(C34CC5CC(CC(CC(=O)O)(C5)C3)C4)c(=O)c2Cl)cc1` the Potency was inconclusive: 0.562 µM [activator, full curve, poor fit].
With `NS(=O)(=O)c1ccc(CCNC(=O)c2ccc(NS(=O)(=O)c3ccc4[nH]c(=O)[nH]c4c3)cc2)cc1` the Potency was inconclusive: 0.112 µM [activator, full curve, poor fit].
In the case of `Cc1[nH]n(-c2ccccc2)c(=S)c1C=NCCCN=Cc1c(C)[nH]n(-c2ccccc2)c1=S`, the Potency is reported as inconclusive: 5.8 µM [inhibitor, full curve].
With `COc1ccc(C(=O)Nc2cccc(OC)c2)cc1` the Potency was inconclusive: 1.16 µM [activator, single point].
In the case of `Cc1ccc(CNCC(O)c2ccccc2)s1` (stereo unspecified), the Potency is reported as inconclusive: 17.8 µM [inhibitor, partial curve, poor fit].
With `COC(=O)C1=CN(c2ccc(F)cc2)C=C(C(=O)OC)C1c1cccc(Br)c1` the Potency was inconclusive: 11.2 µM [inhibitor, partial curve, poor fit].
